Here are results for 1 substance from article PMC6599078.

Amino acid sequences for entries named in this document (tags omitted).
UniProt P54252: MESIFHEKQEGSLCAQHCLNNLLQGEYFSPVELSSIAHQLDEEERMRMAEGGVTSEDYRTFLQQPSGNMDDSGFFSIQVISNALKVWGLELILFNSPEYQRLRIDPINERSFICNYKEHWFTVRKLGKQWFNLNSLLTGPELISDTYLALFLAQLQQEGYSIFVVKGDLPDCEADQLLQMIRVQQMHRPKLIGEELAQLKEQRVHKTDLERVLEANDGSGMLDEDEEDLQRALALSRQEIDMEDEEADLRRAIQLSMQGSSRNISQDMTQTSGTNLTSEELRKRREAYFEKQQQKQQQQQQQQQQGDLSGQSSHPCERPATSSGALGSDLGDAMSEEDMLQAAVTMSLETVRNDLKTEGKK

The test has as its target T1, TSPAN8 (immunoprecipitated for mass spectrometry and for the co-immunoprecipitation with ATXN3) (UniProt P19075).
T1 sequence: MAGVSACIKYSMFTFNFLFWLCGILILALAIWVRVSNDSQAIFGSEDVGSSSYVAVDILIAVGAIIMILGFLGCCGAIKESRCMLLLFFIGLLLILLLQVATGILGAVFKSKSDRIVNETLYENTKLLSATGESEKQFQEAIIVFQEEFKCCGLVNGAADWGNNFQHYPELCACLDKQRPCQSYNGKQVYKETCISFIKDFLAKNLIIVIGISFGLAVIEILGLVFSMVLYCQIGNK
Nature of the test: affinity purification with mass spectrometry; mass spectrometry analyses of immunoprecipitated TSPAN8.

These are yes or no findings as the source states them, for the method shown. Binding seen in cells or lysates may run through a third protein. These calls come from enrichment with a bait or labelling near it, and not all partners need be listed.

Take “ATXN3 (found with immunoprecipitated TSPAN8) (from UniProt P54252 1-361) (enzyme)”: the binding entry was “binds”.
